PubChem BioAssay AID1508588, Peter MacCallum Cancer Centre, 2020

- Purpose: 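Genome-wide search for knock-downs that heighten vemurafenib action in melanoma cells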 (primary screen)
- Cells: human WM266.4 melanoma cells (BRAF V600 mutant)
- Reagent: siRNA pool against human genes, 40 nM
- Time to read-out: 96 h from transfection to read-out
- Challenge: vemurafenib 300 nM (about IC25), added 48 h after transfection, for 48 h; comparison arm got DMSO vehicle only
- Measurement: 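Ratios to non-targeting siRNA for cell gain, counted as DAPI nuclei after minus before drug and averaged over two replicates, and for absorbance-read medium lactate per cell; both binned into fold-change classes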
- Direction: cell gain with vemurafenib: higher = more cell gain than with non-targeting siRNA; lactate per cell with vemurafenib: higher = more lactate made per cell
- Active means: 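Enhancement is called by pairing each knock-down's vehicle-arm and drug-arm fold-change classes for viability or glycolysis; which class combinations qualify is not given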
- Meaning of the calls: active = enhances vemurafenib effect; inactive = no enhancement seen
Here is a random part of about 18,000 deposited reagents. Of all reagents, 790 (4.4%) got an active call. 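Calls rest on a combination of fold-change classes in drug and vehicle arms, not all shown here.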 Entries without a mark were called inactive. Some reagents were tested in more than one well and are listed for each.

| target gene | cell gain with vemurafenib | lactate per cell with vemurafenib |
| --- | --- | --- |
| MARCHF9 (membrane associated ring-CH-type finger 9) | 0.53 | 1.62 |
| UPP1 (uridine phosphorylase 1) | 0.43 | 1.87 |
| FOXD3 (forkhead box D3) | 0.97 | 0.84 |
| MAS1L (MAS1 proto-oncogene like, G protein-coupled receptor) | 0.27 | 1.12 |
| SORBS1 (sorbin and SH3 domain containing 1) | 0.36 | 1.19 |
| BHLHE41 (basic helix-loop-helix family member e41) | 0.54 | 1.36 |
| URM1 (ubiquitin related modifier 1) | 0.5 | 0.79 |
| FAM53C (family with sequence similarity 53 member C) | 0.45 | 0.52 |
| TRAPPC13 (trafficking protein particle complex subunit 13) | 0.77 | 0.91 |
| GNG13 (G protein subunit gamma 13) | 0.37 | 0.76 |
| PHF3 (PHD finger protein 3) | 0.76 | 0.76 |
| C1QTNF7 (C1q and TNF related 7) | 0.22 | 1.1 |
| YTHDC1 (YTH N6-methyladenosine RNA binding protein C1) | 0.4 | 2.1 |
| SLC39A9 | 0.11 | 1.17 |
| PRSS55 (serine protease 55) | 1.03 | 0.76 |
| GALNT16 (polypeptide N-acetylgalactosaminyltransferase 16) | 0.85 | 0.89 |
| OR51F1 (olfactory receptor family 51 subfamily F member 1) | 0.65 | 0.53 |
| FSIP1 (fibrous sheath interacting protein 1) | 0.79 (active) | 0.48 |
| PABPC5 (poly(A) binding protein cytoplasmic 5) | 0.43 | 0.06 |
| ACTL6A (actin like 6A) | 0.7 | 0.79 |
| LY9 (lymphocyte antigen 9) | 0.71 | 0.74 |
| MAPK8 (mitogen-activated protein kinase 8) | 0.8 | 1.29 |
| TAS2R19 (taste 2 receptor member 19) | 0.75 | 0.44 |
| SPCS2 (signal peptidase complex subunit 2) | 0.33 | 2.24 |
| PGF (placental growth factor) | 0.59 | 1.4 |
| WRNIP1 (WRN helicase interacting protein 1) | 0.68 | 0.7 |
| FBXL6 (F-box and leucine rich repeat protein 6) | 0.48 | 1.61 |
| DEFB105A (defensin beta 105A) | 0.43 | 0.92 |
| C1QL1 (complement C1q like 1) | 0.33 | 1.5 |
| KLRC2 (killer cell lectin like receptor C2) | 0.79 | 0.73 |
| MAP1A (microtubule associated protein 1A) | 0.36 (active) | 0.66 |
| TMEM176B (transmembrane protein 176B) | 0.84 | 0.83 |
| ATF7 (activating transcription factor 7) | 0.88 | 0.96 |
| ZNFX1 (zinc finger NFX1-type containing 1) | 0.33 | 0.65 |
| CCNJL (cyclin J like) | 0.22 | 2.12 |
| ATP1B4 (ATPase Na+/K+ transporting family member beta 4) | 0.88 | 0.53 |
| ZMYND8 (zinc finger MYND-type containing 8) | 0.31 | 0.74 |
| VAMP2 (vesicle associated membrane protein 2) | 0.66 | 1.44 |
| ADGRE4P (adhesion G protein-coupled receptor E4, pseudogene) | 0.77 | 1.15 |
| VIPAS39 | 0.82 | 1.36 |
| GRIN2B (glutamate ionotropic receptor NMDA type subunit 2B) | 0.37 | 0.27 |
| MANEAL (mannosidase endo-alpha like) | 0.26 | 1.82 |
| GBP5 (guanylate binding protein 5) | 0.18 (active) | 1.75 |
| RNF10 (ring finger protein 10) | 0.24 | 1.58 |
| DDX47 (DEAD-box helicase 47) | 0.36 | 0.44 |
| C11orf16 (chromosome 11 open reading frame 16) | 0.45 | 0.45 |
| IBA57 (iron-sulfur cluster assembly factor IBA57) | 0.24 | 1.93 |
| ZFHX4 (zinc finger homeobox 4) | 0.68 | 0.87 |
| TPCN2 (two pore segment channel 2) | 1.18 | 1.08 |
| RPRD1A (regulation of nuclear pre-mRNA domain containing 1A) | 0.49 | 1.18 |
| FLI1 (Fli-1 proto-oncogene, ETS transcription factor) | 0.57 | 1.2 |
| AGXT (alanine--glyoxylate aminotransferase) | 0.17 | 2.04 |
| ENTPD7 (ectonucleoside triphosphate diphosphohydrolase 7) | 0.77 | 1.03 |
| SPMIP8 (sperm microtubule inner protein 8) | 0.82 | 0.44 |
| MRGPRX4 (MAS related GPR family member X4) | 0.37 | 1.41 |
| LRIT2 (leucine rich repeat, Ig-like and transmembrane domains 2) | 0.63 | 1.12 |
| UGT8 (UDP glycosyltransferase 8) | 0.95 | 1.19 |
| HMGCR (3-hydroxy-3-methylglutaryl-CoA reductase) | 0.8 | 1.12 |
| MBTD1 (mbt domain containing 1) | 0.43 | 0.73 |
| TNNI3K (TNNI3 interacting kinase) | 1.07 | 0.83 |
| KTI12 (KTI12 chromatin associated homolog) | 0.66 (active) | 0.46 |
| UQCRC1 (ubiquinol-cytochrome c reductase core protein 1) | 0.83 | 1.48 |
| MAB21L2 (mab-21 like 2) | 0.42 | 1.73 |
| AGGF1 (angiogenic factor with G-patch and FHA domains 1) | 0.9 | 0.67 |
| MRFAP1 (Morf4 family associated protein 1) | 0.87 | 0.6 |
| OR2AT4 (olfactory receptor family 2 subfamily AT member 4) | 0.46 | 0.39 |
| CARD16 (caspase recruitment domain family member 16) | 0.69 | 0.97 |
| OR2T27 (olfactory receptor family 2 subfamily T member 27) | 0.91 | 1.39 |
| HHLA2 (HHLA2 member of B7 family) | 0.45 (active) | 0.08 |
| TULP2 (TUB like protein 2) | 0.05 | 1.55 |
| MYO19 (myosin XIX) | 0.35 | 1.81 |
| JUNB (JunB proto-oncogene, AP-1 transcription factor subunit) | 0.76 | 0.8 |
| BLTP3B (bridge-like lipid transfer protein family member 3B) | 0.61 | 0.84 |
| TIGD5 (tigger transposable element derived 5) | 0.55 | 0.95 |
| ZNF662 (zinc finger protein 662) | 0.72 | 1.05 |
| GPR155 (G protein-coupled receptor 155) | 0.67 | 1.6 |
| PPP1R2 (protein phosphatase 1 regulatory inhibitor subunit 2) | 0.52 | 0.23 |
| PWWP3A (PWWP domain containing 3A, DNA repair factor) | 0.86 | 1.17 |
| ATP6V1B2 (ATPase H+ transporting V1 subunit B2) | 0.51 | 1.54 |
| S1PR1 (sphingosine-1-phosphate receptor 1) | 0.74 | 0.93 |
| PPP1R3C (protein phosphatase 1 regulatory subunit 3C) | 0.54 | 2.06 |
| CCDC112 (coiled-coil domain containing 112) | 0.57 | 1.47 |
| LRCH3 | 0.16 (active) | 0.08 |
| ATP6V0D1 (ATPase H+ transporting V0 subunit d1) | 0.47 | 1.8 |
| KPNA6 (karyopherin subunit alpha 6) | 0.78 | 0.74 |
| MAP3K1 (mitogen-activated protein kinase kinase kinase 1) | 0.29 | 1.36 |
| MAP3K1 (mitogen-activated protein kinase kinase kinase 1) | 0.3 | 2.06 |
| C1orf162 (chromosome 1 open reading frame 162) | 0.57 | 1.02 |
| CTRL (chymotrypsin like) | 0.55 | 1.12 |
| MPIG6B (megakaryocyte and platelet inhibitory receptor G6b) | 0.5 | 0.44 |
| POGLUT3 (protein O-glucosyltransferase 3) | 0.73 | 0.58 |
| KIR3DL1 | 0.64 | 0.66 |
| GDPD4 (glycerophosphodiester phosphodiesterase domain containing 4) | 0.34 (active) | 0.36 |
| COMMD10 (COMM domain containing 10) | 0.92 | 0.29 |
| SLC26A8 | 0.36 | 1.01 |
| GCNT4 (glucosaminyl (N-acetyl) transferase 4) | 0.48 | 1 |
| OR52E6 (olfactory receptor family 52 subfamily E member 6) | 0.55 | 0.29 |
| UVSSA (UV stimulated scaffold protein A) | 0.62 | 0.78 |
| ARF6 (ARF GTPase 6) | 0.54 | 0.38 |
| VEGFD (vascular endothelial growth factor D) | 0.47 | 1.66 |
| LRGUK (leucine rich repeats and guanylate kinase domain containing) | 0.31 | 0.82 |
| BCL7B (BAF chromatin remodeling complex subunit BCL7B) | 0.63 | 1.43 |
| ADAM9 (ADAM metallopeptidase domain 9) | 1.34 | 0.3 |
| UCMA (upper zone of growth plate and cartilage matrix associated) | 0.36 | 0.97 |
| GOLT1B (golgi transport 1B) | 0.54 | 0.52 |
| TWIST1 (twist family bHLH transcription factor 1) | 0.63 | 1.47 |
| LINC03124 (long independently transcribed non-coding RNA 3124) | 1.01 | 0.89 |

Sorted by “lactate per cell with vemurafenib” (ascending): some entries from above.
| target gene | cell gain with vemurafenib | lactate per cell with vemurafenib |
| --- | --- | --- |
| LRCH3 | 0.16 (active) | 0.08 |
| COMMD10 (COMM domain containing 10) | 0.92 | 0.29 |
| GDPD4 (glycerophosphodiester phosphodiesterase domain containing 4) | 0.34 (active) | 0.36 |
| MPIG6B (megakaryocyte and platelet inhibitory receptor G6b) | 0.5 | 0.44 |
| POGLUT3 (protein O-glucosyltransferase 3) | 0.73 | 0.58 |
| KIR3DL1 | 0.64 | 0.66 |
| KPNA6 (karyopherin subunit alpha 6) | 0.78 | 0.74 |
| GCNT4 (glucosaminyl (N-acetyl) transferase 4) | 0.48 | 1 |
| SLC26A8 | 0.36 | 1.01 |
| C1orf162 (chromosome 1 open reading frame 162) | 0.57 | 1.02 |
| CTRL (chymotrypsin like) | 0.55 | 1.12 |
| MAP3K1 (mitogen-activated protein kinase kinase kinase 1) | 0.29 | 1.36 |
| CCDC112 (coiled-coil domain containing 112) | 0.57 | 1.47 |
| ATP6V0D1 (ATPase H+ transporting V0 subunit d1) | 0.47 | 1.8 |
| PPP1R3C (protein phosphatase 1 regulatory subunit 3C) | 0.54 | 2.06 |
| MAP3K1 (mitogen-activated protein kinase kinase kinase 1) | 0.3 | 2.06 |
